Measured data: PubChem BioAssay AID504808 (Drosophila RNAi Screening Center, 2011)

- Aim: 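Genes whose loss lifts activity of an E2F-responsive reporter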 (primary screen)
- Cell system: Drosophila S2 cells
- Reagents: long dsRNA against Drosophila genes
- Measured: 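Dual luciferase plate measurements; E2F-specific signal taken as firefly over Renilla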
- Reading the numbers: E2F firefly: higher = more E2F reporter activity; Renilla normaliser: higher = more normaliser reporter signal
- Rule for the call: 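Called active if the normalised E2F reporter went up by over 50%; the cutoff is arbitrary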
The deposit covers about 21,000 reagents; this is an unselected part of those with a known target gene and a result. Over the whole deposit, 18 (0.084%) got an active call. 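Raw counts without plate normalisation, one of two replicates; the ratio scores behind the calls were not deposited.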 A number with no mark means an inactive call. A plus sign joins genes that one reagent is predicted to hit. No sequences are given here. Not given: the amount of reagent, the time to read-out.

Target gene | DRSC id | E2F firefly, rep 1 | Renilla normaliser, rep 1
twf | DRSC15466 | 88995 | 4196
CG14384 | DRSC14842 | 1.04e5 | 7783
mRpS22 | DRSC14488 | 1822 | 1032
Vinc | DRSC18728 | 1908 | 920
CDK2AP1 | DRSC19800 | 7323 | 772
ppk11 | DRSC02737 | 1.45e5 | 4815
ItgaPS4 | DRSC06630 | 1.15e5 | 4127
Fgop2 | DRSC02016 | 82779 | 3728
Grd | DRSC11178 | 1.63e5 | 8075
jbug | DRSC03952 | 1.26e5 | 4935
jbug | DRSC04114 | 79413 | 3503
jbug | DRSC04167 | 93452 | 4025
jbug | DRSC04388 | 1.18e5 | 4698
CG6847 | DRSC19213 | 82449 | 2680
CG6847 | DRSC20009 | 1.36e5 | 6575
Dic1 | DRSC14125 | 74769 | 3210
ImpE1 | DRSC11195 | 96679 | 3385
ImpE1 | DRSC11196 | 86917 | 3493
RpS7 | DRSC15394 | 62780 | 6029
Fic | DRSC03247 | 90132 | 3834
CG15651 | DRSC04242 | 1.00e5 | 4174
CG9132 | DRSC20159 | 1.42e5 | 10015
CR46300 | DRSC12467 | 89474 | 4881
CG5062 | DRSC18385 | 87766 | 5031
Atg2 | DRSC08273 | 77555 | 3572
CG15322 | DRSC20680 | 1.10e5 | 4383
Nup154 | DRSC03384 | 71741 | 3553
mRpL11 | DRSC15482 | 1.12e5 | 5886
CG3191 | DRSC18530 | 1883 | 896
sgll | DRSC15442 | 1.44e5 | 6976
pins | DRSC17043 | 74410 | 5682
CG16826 | DRSC02527 | 95117 | 3522
Atet | DRSC00263 | 1.55e5 | 4470
CG42374 + Mettl5 | DRSC11085 | 73984 | 3084
Fer2LCH | DRSC16672 | 1.16e5 | 5540
rdo | DRSC02452 | 87570 | 3732
out | DRSC19347 | 1.64e5 | 5676
Adgf-A | DRSC10566 | 66719 | 3592
org-1 | DRSC18810 | 61392 | 3718
CG34030 | DRSC08866 | 1.27e5 | 5363
Appl | DRSC17728 | 1757 | 1011
CG15128 | DRSC06550 | 1.40e5 | 4151
CG12539 | DRSC19470 | 2.29e5 | 7974
CG33229 | DRSC07863 | 1.35e5 | 4013
Dscam2 | DRSC08869 | 1.29e5 | 5441
Dscam2 | DRSC10198 | 90425 | 3530
Dscam2 | DRSC11018 | 95319 | 4009
Dscam2 | DRSC11019 | 98386 | 3902
CG8620 | DRSC11020 | 96509 | 3630
CG10494 | DRSC04072 | 73903 | 3054
knon | DRSC07049 | 1.45e5 | 5471
CG2701 | DRSC18590 | 1864 | 888
Cyp6u1 | DRSC05015 | 79488 | 3538
CCKLR-17D3 | DRSC20015 | 1.38e5 | 3333
CCKLR-17D3 | DRSC20017 | 1.31e5 | 7081
CG33136 | DRSC05744 | 1.50e5 | 4995
CG5447 | DRSC15801 | 99152 | 5495
CG6661 | DRSC10687 | 66377 | 3189
rdgA | DRSC17863 | 78440 | 4560
rdgA | DRSC18036 | 88317 | 4562
rdgA | DRSC18827 | 7657 | 816
CG40341 (retired record) | DRSC01767 | 1.27e5 | 4704
CG40341 (retired record) | DRSC03750 | 1.21e5 | 4532
colt | DRSC00808 | 78198 | 3270
CARPB | DRSC18437 | 8622 | 732
CARPB | DRSC18438 | 1.18e5 | 5766
Tango1 | DRSC02127 | 96505 | 3803
emei | DRSC10897 | 1.06e5 | 5431
CG34367 | DRSC02238 | 1.45e5 | 5270
CG34367 | DRSC02850 | 1.51e5 | 5566
ath | DRSC02788 | 1.62e5 | 5042
Ugt316A1 | DRSC10376 | 1.40e5 | 6823
Cyp316a1 | DRSC11130 | 96080 | 4069
CG4707 | DRSC04483 | 87793 | 3818
CG34115 | DRSC03840 | 1.13e5 | 4360
Alg11 | DRSC11647 | 84939 | 3747
CG42232 | DRSC15018 | 70765 | 3756
CG42232 | DRSC15019 | 81907 | 4022
CG14257 | DRSC14752 | 1.22e5 | 5950
Orct2 | DRSC14613 | 72675 | 3593
ND-B14.5B | DRSC00346 | 1.46e5 | 5122
Sce | DRSC16825 | 1285 | 944
Naus | DRSC06011 | 64850 | 3453
Naus | DRSC06469 | 1.41e5 | 4743

Individual results from the entries so far.
Under “Renilla normaliser, rep 1”, Cyp6u1 [DRSC05015] has 3538
Vinc [DRSC18728], Renilla normaliser, rep 1: 920
Result for CG12539 [DRSC19470] under “Renilla normaliser, rep 1”: 7974
Under “E2F firefly, rep 1”, Ugt316A1 [DRSC10376] reads 1.40e5
CG6661 [DRSC10687], Renilla normaliser, rep 1 = 3189
Under “E2F firefly, rep 1”, CG33136 [DRSC05744] reads 1.50e5
